Measurements from article PMC12612596, “Real‐time FRET assay for monitoring detyrosination by TMCP1 and VASH2” (Protein Science : A Publication of the Protein Society, 2025).
No constants are given. Whether binding was seen depends on the method and setting. Some entries that bind do so weakly or less than the wild type. Sequences can lack the tags named with a protein.

By UniProt entry, the sequences of proteins in these tests, tags left out.
UniProt Q7L8A9: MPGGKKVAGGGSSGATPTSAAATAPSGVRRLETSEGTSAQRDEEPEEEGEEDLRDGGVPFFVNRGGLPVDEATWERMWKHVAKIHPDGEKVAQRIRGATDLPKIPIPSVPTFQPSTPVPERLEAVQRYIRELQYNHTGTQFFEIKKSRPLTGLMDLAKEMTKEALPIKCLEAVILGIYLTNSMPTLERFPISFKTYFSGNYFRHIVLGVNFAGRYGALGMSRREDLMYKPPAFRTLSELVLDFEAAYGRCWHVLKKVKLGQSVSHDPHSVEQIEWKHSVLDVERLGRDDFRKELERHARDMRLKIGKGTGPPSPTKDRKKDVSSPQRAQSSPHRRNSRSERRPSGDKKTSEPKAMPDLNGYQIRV
UniProt Q86V25: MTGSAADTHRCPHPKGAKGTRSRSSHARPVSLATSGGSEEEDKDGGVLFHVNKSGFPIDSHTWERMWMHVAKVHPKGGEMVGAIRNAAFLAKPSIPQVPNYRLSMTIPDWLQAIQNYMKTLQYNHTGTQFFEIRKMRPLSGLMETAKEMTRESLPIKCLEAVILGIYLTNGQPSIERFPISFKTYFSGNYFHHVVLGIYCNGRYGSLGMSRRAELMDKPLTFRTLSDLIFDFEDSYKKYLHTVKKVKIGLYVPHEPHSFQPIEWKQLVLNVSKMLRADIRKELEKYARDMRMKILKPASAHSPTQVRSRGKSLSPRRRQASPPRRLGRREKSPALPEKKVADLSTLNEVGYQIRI

Columns and labels:
[1] = target: Vasohibin 1 (VASH1), His- and T7-tagged (UniProt Q7L8A9); experiment: co-expression and co-purification (Ni-NTA); His-/T7-tagged VASH1 or VASH2 co-expressed with T7-tagged SVBP from a bicistronic vector in E. coli; His-tagged protein captured on Ni-NTA agarose in 50 mM Tris pH 8, 300 mM NaCl, 0.05% tween, eluted with 250 mM imidazole
[2] = target: Vasohibin 2 (VASH2), His- and T7-tagged (UniProt Q86V25); experiment: as above

binding [1]: binds
binding [2]: binds
B1: Small Vasohibin Binding Protein (SVBP), T7-tagged (protein, UniProt Q8N300 1-66)
chain: MDPPARKEKTKVKESVSRVEKAKQKSAQQELKQRQRAEIYALNRVMTELEQQQFDEFCKQMQPPGE
